The source of these data is paper doi:10.1101/2023.08.08.552518.

This data set deals with human alpha-thrombin + anti-thrombin monoclonal antibody 5020. Kind of data set: bead sandwich flow cytometry. The conditions noted are these: 300 nM thrombin, antibody 5020, most robust pair. In general terms: Flow cytometry measures light scatter and fluorescence of single cells or particles in a stream.

Construct, isoform or probe ends are uncertain for at least one entry.

For GGTTGGTGTGGTTGG [TBA-Cy5], the binding result is given as “binds”.
